These are yes or no findings as the source states them, for the method shown. In cells and extracts the contact can be indirect. These calls come from enrichment with a bait or labelling near it, and not all partners need be listed.

Chains of the proteins cited; added tags and fusions are not shown.
UniProt P62136: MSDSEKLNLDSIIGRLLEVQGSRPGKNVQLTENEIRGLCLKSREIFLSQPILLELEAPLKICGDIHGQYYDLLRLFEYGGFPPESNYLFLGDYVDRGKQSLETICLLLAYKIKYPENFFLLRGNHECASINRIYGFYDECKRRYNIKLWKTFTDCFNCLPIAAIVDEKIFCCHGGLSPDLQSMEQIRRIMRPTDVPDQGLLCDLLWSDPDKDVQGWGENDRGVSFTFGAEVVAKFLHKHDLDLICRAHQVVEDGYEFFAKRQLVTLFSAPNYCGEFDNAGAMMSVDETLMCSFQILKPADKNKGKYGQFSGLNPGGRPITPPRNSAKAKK
UniProt P36873: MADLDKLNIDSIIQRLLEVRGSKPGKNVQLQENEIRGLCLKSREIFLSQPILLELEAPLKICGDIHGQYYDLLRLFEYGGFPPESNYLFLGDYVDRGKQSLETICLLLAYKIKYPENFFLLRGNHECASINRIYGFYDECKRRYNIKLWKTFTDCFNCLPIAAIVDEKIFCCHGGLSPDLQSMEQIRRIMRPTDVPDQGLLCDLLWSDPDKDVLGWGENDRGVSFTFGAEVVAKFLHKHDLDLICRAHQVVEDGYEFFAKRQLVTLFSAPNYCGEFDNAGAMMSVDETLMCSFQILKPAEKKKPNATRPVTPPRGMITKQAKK
UniProt P62140: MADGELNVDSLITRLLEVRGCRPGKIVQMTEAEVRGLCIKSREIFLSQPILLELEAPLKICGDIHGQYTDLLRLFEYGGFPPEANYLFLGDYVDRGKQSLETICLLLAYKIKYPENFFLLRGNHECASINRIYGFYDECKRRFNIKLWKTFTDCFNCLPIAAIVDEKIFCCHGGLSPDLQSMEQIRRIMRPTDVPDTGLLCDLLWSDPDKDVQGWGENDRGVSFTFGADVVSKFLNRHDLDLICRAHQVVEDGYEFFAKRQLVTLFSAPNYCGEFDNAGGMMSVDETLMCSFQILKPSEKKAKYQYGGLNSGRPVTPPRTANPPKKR

Common to all, as to test: affinity purification with mass spectrometry; Strep-HA tagged bait stably expressed in HEK Flp-In 293 T-REx cells; Strep-Tactin sepharose, HNN lysis buffer (50 mM HEPES pH 7.5, 150 mM NaCl, 50 mM NaF, 0.5% Igepal CA-630), biotin elution; quantitative LC-MS/MS, three biological replicates
Test [1] deals with Strep-HA tagged PP1α (human) (UniProt P62136).
The target of test [2] is Strep-HA tagged PP1γ1 (human) (UniProt P36873).
The target of test [3] is Strep-HA tagged PP1β (human) (UniProt P62140).

B1: endogenous RASSF8 of HEK293T cells (protein, UniProt Q8NHQ8 1-419)
chain: MELKVWVDGVQRIVCGVTEVTTCQEVVIALAQAIGRTGRYTLIEKWRDTERHLAPHENPIISLNKWGQYASDVQLILRRTGPSLSERPTSDSVARIPERTLYRQSLPPLAKLRPQIDKSIKRREPKRKSLTFTGGAKGLMDIFGKGKETEFKQKVLNNCKTTADELKKLIRLQTEKLQSIEKQLESNEIEIRFWEQKYNSNLEEEIVRLEQKIKRNDVEIEEEEFWENELQIEQENEKQLKDQLQEIRQKITECENKLKDYLAQIRTMESGLEAEKLQREVQEAQVNEEEVKGKIGKVKGEIDIQGQQSLRLENGIKAVERSLGQATKRLQDKEQELEQLTKELRQVNLQQFIQQTGTKVTVLPAEPIEIEASHADIEREAPFQSGSLKRPGSSRQLPSNLRILQNPISSGFNPEGIYV
As to B1, in test [1], the binding result is “binds”.

B2: endogenous iASPP of HEK293T cells (protein, UniProt Q8WUF5 1-828)
chain: MDSEAFQSARDFLDMNFQSLAMKHMDLKQMELDTAAAKVDELTKQLESLWSDSPAPPGPQAGPPSRPPRYSSSSIPEPFGSRGSPRKAATDGADTPFGRSESAPTLHPYSPLSPKGRPSSPRTPLYLQPDAYGSLDRATSPRPRAFDGAGSSLGRAPSPRPGPGPLRQQGPPTPFDFLGRAGSPRGSPLAEGPQAFFPERGPSPRPPATAYDAPASAFGSSLLGSGGSAFAPPLRAQDDLTLRRRPPKAWNESDLDVAYEKKPSQTASYERLDVFARPASPSLQLLPWRESSLDGLGGTGKDNLTSATLPRNYKVSPLASDRRSDAGSYRRSLGSAGPSGTLPRSWQPVSRIPMPPSSPQPRGAPRQRPIPLSMIFKLQNAFWEHGASRAMLPGSPLFTRAPPPKLQPQPQPQPQPQSQPQPQLPPQPQTQPQTPTPAPQHPQQTWPPVNEGPPKPPTELEPEPEIEGLLTPVLEAGDVDEGPVARPLSPTRLQPALPPEAQSVPELEEVARVLAEIPRPLKRRGSMEQAPAVALPPTHKKQYQQIISRLFHRHGGPGPGGPEPELSPITEGSEARAGPPAPAPPAPIPPPAPSQSSPPEQPQSMEMRSVLRKAGSPRKARRARLNPLVLLLDAALTGELEVVQQAVKEMNDPSQPNEEGITALHNAICGANYSIVDFLITAGANVNSPDSHGWTPLHCAASCNDTVICMALVQHGAAIFATTLSDGATAFEKCDPYREGYADCATYLADVEQSMGLMNSGAVYALWDYSAEFGDELSFREGESVTVLRRDGPEETDWWWAALHGQEGYVPRNYFGLFPRVKPQRSKV
With B2, the figures for the binding result in test [1], in test [2] and in test [3] were “binds”, “binds weakly” and “binds”, respectively.

B3: endogenous ASPP1 of HEK293T cells (protein, UniProt Q96KQ4 1-1090)
chain: MMPMILTVFLSNNEQILTEVPITPETTCRDVVEFCKEPGEGSCHLAEVWRGNERPIPFDHMMYEHLQKWGPRREEVKFFLRHEDSPTENSEQGGRQTQEQRTQRNVINVPGEKRTENGVGNPRVELTLSELQDMAARQQQQIENQQQMLVAKEQRLHFLKQQERRQQQSISENEKLQKLKERVEAQENKLKKIRAMRGQVDYSKIMNGNLSAEIERFSAMFQEKKQEVQTAILRVDQLSQQLEDLKKGKLNGFQSYNGKLTGPAAVELKRLYQELQIRNQLNQEQNSKLQQQKELLNKRNMEVAMMDKRISELRERLYGKKIQLNRVNGTSSPQSPLSTSGRVAAVGPYIQVPSAGSFPVLGDPIKPQSLSIASNAAHGRSKSANDGNWPTLKQNSSSSVKPVQVAGADWKDPSVEGSVKQGTVSSQPVPFSALGPTEKPGIEIGKVPPPIPGVGKQLPPSYGTYPSPTPLGPGSTSSLERRKEGSLPRPSAGLPSRQRPTLLPATGSTPQPGSSQQIQQRISVPPSPTYPPAGPPAFPAGDSKPELPLTVAIRPFLADKGSRPQSPRKGPQTVNSSSIYSMYLQQATPPKNYQPAAHSALNKSVKAVYGKPVLPSGSTSPSPLPFLHGSLSTGTPQPQPPSESTEKEPEQDGPAAPADGSTVESLPRPLSPTKLTPIVHSPLRYQSDADLEALRRKLANAPRPLKKRSSITEPEGPGGPNIQKLLYQRFNTLAGGMEGTPFYQPSPSQDFMGTLADVDNGNTNANGNLEELPPAQPTAPLPAEPAPSSDANDNELPSPEPEELICPQTTHQTAEPAEDNNNNVATVPTTEQIPSPVAEAPSPGEEQVPPAPLPPASHPPATSTNKRTNLKKPNSERTGHGLRVRFNPLALLLDASLEGEFDLVQRIIYEVEDPSKPNDEGITPLHNAVCAGHHHIVKFLLDFGVNVNAADSDGWTPLHCAASCNSVHLCKQLVESGAAIFASTISDIETAADKCEEMEEGYIQCSQFLYGVQEKLGVMNKGVAYALWDYEAQNSDELSFHEGDALTILRRKDESETEWWWARLGDREGYVPKNLLGLYPRIKPRQRTLA
Regarding B3, the binding entry in test [1], in test [2] and in test [3] was “binds” throughout.

B4: endogenous RASSF7 of HEK293T cells (protein, UniProt Q02833 1-373)
chain: MLLGLAAMELKVWVDGIQRVVCGVSEQTTCQEVVIALAQAIGQTGRFVLVQRLREKERQLLPQECPVGAQATCGQFASDVQFVLRRTGPSLAGRPSSDSCPPPERCLIRASLPVKPRAALGCEPRKTLTPEPAPSLSRPGPAAPVTPTPGCCTDLRGLELRVQRNAEELGHEAFWEQELRREQAREREGQARLQALSAATAEHAARLQALDAQARALEAELQLAAEAPGPPSPMASATERLHQDLAVQERQSAEVQGSLALVSRALEAAERALQAQAQELEELNRELRQCNLQQFIQQTGAALPPPPRPDRGPPGTQGPLPPAREESLLGAPSESHAGAQPRPRGGPHDAELLEVAAAPAPEWCPLAAQPQAL
Regarding B4, the binding result in test [1] is reported as “binds”.

The record behind these values is article PMC6377682.
